Laboratory results from publication doi:10.1101/2022.06.20.496767.
These are yes or no findings as the source states them, for the method shown. In cells and extracts the contact can be indirect. These calls come from enrichment with a bait or labelling near it, and not all partners need be listed. Tags and fused reporters may be left off the sequences shown.

Amino acid sequences for entries named in this document (tags omitted).
UniProt Q6Q1P4: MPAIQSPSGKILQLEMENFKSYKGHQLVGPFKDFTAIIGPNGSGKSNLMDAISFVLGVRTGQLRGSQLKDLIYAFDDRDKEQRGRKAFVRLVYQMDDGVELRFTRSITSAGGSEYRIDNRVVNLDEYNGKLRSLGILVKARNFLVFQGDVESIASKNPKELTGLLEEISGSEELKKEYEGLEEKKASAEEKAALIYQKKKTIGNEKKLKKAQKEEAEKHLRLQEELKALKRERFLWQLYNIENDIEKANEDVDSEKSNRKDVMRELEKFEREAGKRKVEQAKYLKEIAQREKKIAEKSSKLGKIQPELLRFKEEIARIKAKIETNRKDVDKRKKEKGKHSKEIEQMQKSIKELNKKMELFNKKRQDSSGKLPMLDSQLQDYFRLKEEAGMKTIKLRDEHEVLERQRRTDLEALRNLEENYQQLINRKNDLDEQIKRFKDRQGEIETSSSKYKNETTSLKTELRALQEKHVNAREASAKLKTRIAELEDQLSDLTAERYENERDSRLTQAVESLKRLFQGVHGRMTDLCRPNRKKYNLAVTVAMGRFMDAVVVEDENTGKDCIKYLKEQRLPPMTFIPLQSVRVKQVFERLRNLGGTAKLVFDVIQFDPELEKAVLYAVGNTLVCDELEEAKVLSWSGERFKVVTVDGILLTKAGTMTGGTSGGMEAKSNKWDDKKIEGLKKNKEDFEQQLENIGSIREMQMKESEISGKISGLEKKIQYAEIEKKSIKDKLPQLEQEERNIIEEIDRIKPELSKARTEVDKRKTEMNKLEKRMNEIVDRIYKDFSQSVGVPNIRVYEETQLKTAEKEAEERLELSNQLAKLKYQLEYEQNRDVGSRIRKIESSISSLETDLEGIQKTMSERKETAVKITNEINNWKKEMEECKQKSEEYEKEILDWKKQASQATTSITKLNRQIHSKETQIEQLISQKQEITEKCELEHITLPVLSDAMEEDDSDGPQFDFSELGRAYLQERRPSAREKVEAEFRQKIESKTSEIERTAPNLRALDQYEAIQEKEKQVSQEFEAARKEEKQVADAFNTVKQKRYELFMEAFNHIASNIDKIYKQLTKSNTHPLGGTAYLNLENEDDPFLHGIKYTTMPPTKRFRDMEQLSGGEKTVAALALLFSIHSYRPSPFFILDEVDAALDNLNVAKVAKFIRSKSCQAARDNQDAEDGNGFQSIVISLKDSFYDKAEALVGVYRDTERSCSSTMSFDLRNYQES

T1: GFP:RAD21.2 (PRO_(ASK1):GFP:RAD21.2) (Arabidopsis thaliana) (UniProt Q9FQ19)
T1 sequence: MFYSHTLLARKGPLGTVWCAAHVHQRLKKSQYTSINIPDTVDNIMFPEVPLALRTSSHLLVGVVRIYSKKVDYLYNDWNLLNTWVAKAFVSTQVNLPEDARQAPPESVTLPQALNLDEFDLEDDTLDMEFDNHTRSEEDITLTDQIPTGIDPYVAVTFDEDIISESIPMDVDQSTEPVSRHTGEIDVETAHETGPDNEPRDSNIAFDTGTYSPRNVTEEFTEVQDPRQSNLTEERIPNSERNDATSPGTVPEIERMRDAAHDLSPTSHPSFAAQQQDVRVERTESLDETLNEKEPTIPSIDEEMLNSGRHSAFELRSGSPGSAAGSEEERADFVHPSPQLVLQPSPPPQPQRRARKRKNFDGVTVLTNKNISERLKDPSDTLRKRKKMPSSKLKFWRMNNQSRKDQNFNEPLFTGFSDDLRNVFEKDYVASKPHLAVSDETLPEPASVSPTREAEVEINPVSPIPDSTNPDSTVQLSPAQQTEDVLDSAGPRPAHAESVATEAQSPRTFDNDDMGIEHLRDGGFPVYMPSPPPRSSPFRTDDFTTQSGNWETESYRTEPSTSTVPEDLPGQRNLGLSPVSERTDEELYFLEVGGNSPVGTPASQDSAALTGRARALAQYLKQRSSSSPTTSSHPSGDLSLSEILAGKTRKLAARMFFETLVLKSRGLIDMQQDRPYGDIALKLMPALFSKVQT


Target: T1, GFP:RAD21.2 (PRO_(ASK1):GFP:RAD21.2) (Arabidopsis thaliana)
Assay: affinity purification with mass spectrometry

binding | Molecule
binds | SMC1 (endogenous) (from UniProt Q6Q1P4 1-1218)
binds | SMC3 (endogenous) (protein, UniProt Q56YN8 1-1204) MFIKQVIIEGFKSYKEQVATEEFSNKVNCVVGANGSGKSNFFHAIRFVLSDIYQNLRSEDRHALLHEGAGHQVVSAFVEIVFDNSDNRFPVDKEEIRLRRTVGLKKDDYFLDGKHITKGEVMNLLESAGFSRANPYYVVQQGKIASLTLMKDIERLDLLKEIGGTRVYEERRRESLRIMQETGNKRKQIIEVVHYLDERLRELDEEKEELRKYQQLDKQRKSLEYTIYDKELHDAREKLEQVEVARTKASEESTKMYDRVEKAQDDSKSLDESLKELTKELQTLYKEKETVEAQQTKALKKKTKLELDVKDFQDRITGNIQSKNDALEQLNTVEREMQDSLRELEAIKPLYESQVDKENQTSKRINELEKTLSILYQKQGRATQFSNKAARDKWLRKEIEDLKRVLDSNTVQEQKLQDEILRLNTDLTERDEHIKKHEVEIGELESRISKSHELFNTKKRERDEEQRKRKEKWGEESQLSSEIDKLKTELERAKKNLDHATPGDVRRGLNSIRRICADYRINGVFGPLVELVDCDEKFFTAVEVTAGNSLFNVVVENDDISTKIIRHLNSLKGGRVTFLPLNRIKAPRVNYPKDSDAIPLLKKLKFDSKFEPALGQVFGRTVVCRDLNVATRVAKNDDLDCITMEGDQVSRKGGMTGGFYDHRRSKLRFMNIIMQNTKSINEKEKELEDVRRQLQVIDQQITQLVTEQQRLEADWTLCKLQVEQLKQEIANANKQKHAIHKAIEYKEKLLGDIRTRIDQVRSSMSMKEAEMGTELVDHLTPEEREQLSKLNPEIKDLKEKKFAYQADRIERETRKAELEANIATNLKRRITELQATIASIDDDSLPSSAGTKEQELDDAKLSVNEAAKELKSVCDSIDEKTKQIKKIKDEKAKLKTLEDDCKGTLQDLDKKLEELFSLRNTLLAKQDEYTKKIRGLGPLSSDAFDTYKRKNIKELQKMLHRCSEQLQQFSHVNKKALDQYVNFTEQREELQNRQAELDAGDEKIKELITVLDQRKDESIERTFKGVAHHFRDVFSELVQDGYGNLIIMKKKDLDNDDEDDDDDDGGREAVTEGRVEKYIGVKVKVSFTGQGETQLMKQLSGGQKTVVALALIFAIQRCDPAPFYLFDEIDAALDPQYRTAVGNLIRRLADDYGTQFITTTFRPELVRVADKIYGVFHKNRVSIVNVISKDQALDFIEKDQSHDT
